Laboratory results as given in US12390490B2, “Sphingolipid-based selenium compounds, methods for their preparation, and pharmaceutical uses thereof, including as antitumor agents” (MUSC FOUNDATION FOR RESEARCH DEVELOPMENT, priority 2019, dated 2025).
At least one structure is not confirmed: it was looked up by name or label, or the drawing left a doubt.

What was measured:
[1] = tested on: non-cancerous adjacent tissue organoids; assay: Ex vivo non-cancerous adjacent tissue organoids, mitophagy; assay type: cell-based, human; details: ex vivo treatment, same patient
Excerpt: (§1) To validate the clinical relevance of the activation of mitophagy, 2D organoids^4 were developed using tumor tissues obtained from a patient with HNSCC. […] The co-localization of GM130/Calnexin was used as a control.

HNSCC organoids = assay: Ex vivo 2D HNSCC patient organoids, CerS1/Tom20 co-localization (mitophagy); assay type: cell-based, human; details: ex vivo treatment
Excerpt: FIG. 14A is a series of microscopy images showing the H&E staining (top row) and fluorescence imaging of the co-localization of translocase of outer mitochondrial membrane 20 (Tom20) and CerS1 (as a measure of mitophagy, middle row) in two-dimensional (2D) organoids developed from a patient with head and neck squamous cell carcinoma (HNSCC) in response to treatment with vehicle, LCL-768, sodium selenite (SoSe), rapamycin, or cisplatin ex vivo. Co-localization of cis-Golgi matrix protein 130 kDa (GM130) and Calnexin was used as a negative control (bottom row).
FIG. 14B is a graph showing the quantification of colocalization of Tom20 and CerS1 from the treated two-dimensional (2D) organoids described for FIG. 14A.
as §1

CO[C@H]1C[C@@H]2CC[C@@H](C)[C@@](O)(O2)C(=O)C(=O)N2CCCC[C@H]2C(=O)O[C@H]([C@H](C)C[C@@H]2CC[C@@H](O)[C@H](OC)C2)CC(=O)[C@H](C)/C=C(\C)[C@@H](O)[C@@H](OC)C(=O)[C@H](C)C[C@H](C)/C=C/C=C/C=C/1C [rapamycin]
mitophagy induction in non-cancerous adjacent tissue organoids [1]: did not affect mitophagy induction | mitophagy (co-localization of CerS1 and Tom20) compared to vehicle-treated controls (HNSCC organoids): induced mitophagy
